This series is described as follows: Lipophilicity, log D of the compound at pH 7.4. Conditions: buffer.

Usually logD stands for lipophilicity at a set pH, counting ionised and neutral species. Low values mean lower lipophilicity, high ones higher lipophilicity. With `CN(C)C(=O)c1cc(C2CCCN2c2ccccc2)c2oc(N3CCOCC3)cc(=O)c2c1` (racemic), the logD came to 2.4.

These data come from ChEMBL document CHEMBL4014298, “Discovery of a series of 8-(1-phenylpyrrolidin-2-yl)-6-carboxamide-2-morpholino-4H-chromen-4-one as PI3Kβ/δ inhibitors for the treatment of PTEN-deficient tumours” (Bioorg Med Chem Lett, 2017).
